# Assay results taken from the supplement of paper PMC6411743.
# By UniProt entry, the sequences of proteins in these tests, tags left out. Where a name states a change or a piece, a line headed by the entry shows the natural chain unless it says otherwise.
# UniProt P78410: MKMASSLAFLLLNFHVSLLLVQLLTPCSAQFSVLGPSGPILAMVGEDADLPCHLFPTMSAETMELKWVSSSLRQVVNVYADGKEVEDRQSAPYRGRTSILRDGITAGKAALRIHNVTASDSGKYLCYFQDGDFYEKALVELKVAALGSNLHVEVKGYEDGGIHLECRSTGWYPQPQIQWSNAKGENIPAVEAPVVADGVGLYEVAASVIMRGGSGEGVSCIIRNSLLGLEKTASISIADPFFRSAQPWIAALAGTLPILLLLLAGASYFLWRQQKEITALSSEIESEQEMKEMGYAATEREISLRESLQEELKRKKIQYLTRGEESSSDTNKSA
# UniProt P62310: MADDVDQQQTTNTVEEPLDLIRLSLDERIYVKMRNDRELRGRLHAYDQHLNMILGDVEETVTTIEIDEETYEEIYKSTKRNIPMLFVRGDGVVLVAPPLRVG
# UniProt P60891: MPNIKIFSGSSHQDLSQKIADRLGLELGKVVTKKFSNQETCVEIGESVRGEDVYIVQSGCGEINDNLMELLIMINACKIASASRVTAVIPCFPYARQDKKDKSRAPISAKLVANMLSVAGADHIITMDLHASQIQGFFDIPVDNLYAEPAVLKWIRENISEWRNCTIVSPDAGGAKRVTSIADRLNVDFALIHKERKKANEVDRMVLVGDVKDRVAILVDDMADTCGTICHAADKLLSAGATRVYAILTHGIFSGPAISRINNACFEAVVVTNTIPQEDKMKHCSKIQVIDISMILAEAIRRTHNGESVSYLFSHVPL
# UniProt P53801: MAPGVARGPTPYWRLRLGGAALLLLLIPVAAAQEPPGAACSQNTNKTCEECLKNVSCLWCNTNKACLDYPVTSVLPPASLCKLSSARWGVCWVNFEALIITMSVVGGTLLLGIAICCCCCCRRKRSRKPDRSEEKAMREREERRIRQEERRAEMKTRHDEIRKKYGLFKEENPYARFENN
# UniProt P61129: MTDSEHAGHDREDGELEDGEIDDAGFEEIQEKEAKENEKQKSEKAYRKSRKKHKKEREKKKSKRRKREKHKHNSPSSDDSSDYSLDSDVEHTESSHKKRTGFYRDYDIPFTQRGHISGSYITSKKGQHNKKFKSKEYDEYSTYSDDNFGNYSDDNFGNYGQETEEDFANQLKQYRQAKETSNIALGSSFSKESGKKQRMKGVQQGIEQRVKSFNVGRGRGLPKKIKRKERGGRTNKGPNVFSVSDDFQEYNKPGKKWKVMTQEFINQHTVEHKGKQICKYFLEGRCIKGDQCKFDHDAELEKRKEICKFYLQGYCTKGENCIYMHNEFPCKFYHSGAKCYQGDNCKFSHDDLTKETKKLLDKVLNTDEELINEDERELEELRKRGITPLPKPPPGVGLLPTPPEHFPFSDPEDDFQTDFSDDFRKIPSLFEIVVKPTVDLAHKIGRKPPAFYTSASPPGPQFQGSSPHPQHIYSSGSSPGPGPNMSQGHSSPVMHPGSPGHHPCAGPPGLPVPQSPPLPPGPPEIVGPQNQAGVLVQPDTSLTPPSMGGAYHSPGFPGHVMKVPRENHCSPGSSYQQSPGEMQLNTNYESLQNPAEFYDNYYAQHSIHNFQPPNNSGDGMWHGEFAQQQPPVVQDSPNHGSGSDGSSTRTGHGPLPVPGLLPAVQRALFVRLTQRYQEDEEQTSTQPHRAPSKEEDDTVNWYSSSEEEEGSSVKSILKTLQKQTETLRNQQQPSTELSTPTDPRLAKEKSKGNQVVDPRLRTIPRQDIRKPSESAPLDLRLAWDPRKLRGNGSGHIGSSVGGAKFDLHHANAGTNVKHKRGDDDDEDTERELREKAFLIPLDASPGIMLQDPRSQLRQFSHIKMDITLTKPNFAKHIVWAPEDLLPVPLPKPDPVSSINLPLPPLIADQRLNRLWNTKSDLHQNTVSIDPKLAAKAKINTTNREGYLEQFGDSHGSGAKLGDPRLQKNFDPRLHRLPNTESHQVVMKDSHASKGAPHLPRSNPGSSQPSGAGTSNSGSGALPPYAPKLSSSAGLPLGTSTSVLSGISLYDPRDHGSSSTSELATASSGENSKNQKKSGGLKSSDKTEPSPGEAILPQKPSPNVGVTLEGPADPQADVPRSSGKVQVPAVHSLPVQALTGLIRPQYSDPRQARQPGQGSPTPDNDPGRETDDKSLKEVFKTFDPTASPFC
# UniProt P56192: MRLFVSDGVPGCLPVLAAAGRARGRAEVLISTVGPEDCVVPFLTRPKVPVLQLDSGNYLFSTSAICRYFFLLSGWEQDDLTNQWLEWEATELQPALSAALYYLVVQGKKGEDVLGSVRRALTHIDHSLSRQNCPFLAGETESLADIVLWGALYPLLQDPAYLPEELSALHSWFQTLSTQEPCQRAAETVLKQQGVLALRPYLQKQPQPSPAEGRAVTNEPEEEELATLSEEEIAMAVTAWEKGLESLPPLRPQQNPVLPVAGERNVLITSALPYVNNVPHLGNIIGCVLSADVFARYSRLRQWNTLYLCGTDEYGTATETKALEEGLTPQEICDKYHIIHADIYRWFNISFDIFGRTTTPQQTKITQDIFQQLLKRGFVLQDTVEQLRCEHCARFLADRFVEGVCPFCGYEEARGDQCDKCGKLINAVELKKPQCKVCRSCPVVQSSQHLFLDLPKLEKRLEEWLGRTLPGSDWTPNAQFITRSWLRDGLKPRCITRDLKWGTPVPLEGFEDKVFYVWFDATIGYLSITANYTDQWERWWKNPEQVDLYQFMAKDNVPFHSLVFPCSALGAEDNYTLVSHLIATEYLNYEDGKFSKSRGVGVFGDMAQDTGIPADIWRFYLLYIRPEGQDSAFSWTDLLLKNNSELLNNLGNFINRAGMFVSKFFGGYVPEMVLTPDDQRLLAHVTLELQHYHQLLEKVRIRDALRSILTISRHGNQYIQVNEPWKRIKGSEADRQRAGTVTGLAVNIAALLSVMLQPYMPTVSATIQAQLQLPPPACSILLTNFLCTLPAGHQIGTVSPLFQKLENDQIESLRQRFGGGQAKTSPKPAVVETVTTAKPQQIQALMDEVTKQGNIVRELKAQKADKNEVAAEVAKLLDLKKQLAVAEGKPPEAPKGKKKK
# UniProt P63313: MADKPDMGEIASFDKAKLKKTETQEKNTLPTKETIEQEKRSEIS
# UniProt P78332: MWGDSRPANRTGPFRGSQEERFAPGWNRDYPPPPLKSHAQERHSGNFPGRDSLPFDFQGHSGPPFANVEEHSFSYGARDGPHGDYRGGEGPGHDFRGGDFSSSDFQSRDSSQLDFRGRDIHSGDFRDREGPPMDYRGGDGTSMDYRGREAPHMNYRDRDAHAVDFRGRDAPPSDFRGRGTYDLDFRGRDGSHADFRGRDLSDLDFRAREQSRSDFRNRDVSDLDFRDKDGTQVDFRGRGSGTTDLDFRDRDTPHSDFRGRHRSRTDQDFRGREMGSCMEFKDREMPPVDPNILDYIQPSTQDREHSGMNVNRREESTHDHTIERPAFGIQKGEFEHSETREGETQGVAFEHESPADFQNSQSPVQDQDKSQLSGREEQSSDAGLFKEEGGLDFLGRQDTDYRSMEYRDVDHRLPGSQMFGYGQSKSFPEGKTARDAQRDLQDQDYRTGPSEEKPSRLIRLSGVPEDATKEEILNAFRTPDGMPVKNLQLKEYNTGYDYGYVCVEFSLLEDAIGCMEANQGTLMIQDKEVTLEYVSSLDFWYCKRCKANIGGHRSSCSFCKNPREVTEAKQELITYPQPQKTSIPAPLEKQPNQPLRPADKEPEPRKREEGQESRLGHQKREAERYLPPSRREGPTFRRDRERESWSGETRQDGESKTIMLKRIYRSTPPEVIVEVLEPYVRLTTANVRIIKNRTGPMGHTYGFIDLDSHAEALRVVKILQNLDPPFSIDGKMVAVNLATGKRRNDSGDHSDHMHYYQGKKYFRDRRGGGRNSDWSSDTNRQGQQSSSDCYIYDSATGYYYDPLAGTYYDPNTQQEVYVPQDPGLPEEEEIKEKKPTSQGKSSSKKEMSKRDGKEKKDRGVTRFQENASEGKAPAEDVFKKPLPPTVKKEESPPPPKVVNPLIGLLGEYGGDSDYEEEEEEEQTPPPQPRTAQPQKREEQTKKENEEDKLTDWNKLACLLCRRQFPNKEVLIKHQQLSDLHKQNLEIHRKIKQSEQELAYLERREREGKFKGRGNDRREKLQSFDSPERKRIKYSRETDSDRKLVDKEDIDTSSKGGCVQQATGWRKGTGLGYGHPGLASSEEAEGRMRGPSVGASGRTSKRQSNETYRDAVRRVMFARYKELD
# UniProt P54652, whole entry: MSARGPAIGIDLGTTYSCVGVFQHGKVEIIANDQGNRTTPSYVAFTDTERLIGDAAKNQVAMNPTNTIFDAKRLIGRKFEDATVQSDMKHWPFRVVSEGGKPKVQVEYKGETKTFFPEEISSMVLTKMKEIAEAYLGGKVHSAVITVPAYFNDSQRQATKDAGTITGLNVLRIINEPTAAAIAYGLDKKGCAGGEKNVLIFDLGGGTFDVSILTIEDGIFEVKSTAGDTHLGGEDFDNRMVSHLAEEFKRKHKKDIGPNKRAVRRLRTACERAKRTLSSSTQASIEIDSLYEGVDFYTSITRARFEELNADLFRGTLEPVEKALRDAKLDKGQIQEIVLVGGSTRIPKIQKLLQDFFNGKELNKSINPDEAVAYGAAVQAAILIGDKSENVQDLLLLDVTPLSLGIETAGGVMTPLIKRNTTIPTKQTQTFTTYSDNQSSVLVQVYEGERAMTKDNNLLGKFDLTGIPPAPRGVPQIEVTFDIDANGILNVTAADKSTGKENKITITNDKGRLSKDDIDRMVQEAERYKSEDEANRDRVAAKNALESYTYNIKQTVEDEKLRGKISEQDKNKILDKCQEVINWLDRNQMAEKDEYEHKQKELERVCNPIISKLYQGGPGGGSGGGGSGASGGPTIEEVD
# UniProt P98179: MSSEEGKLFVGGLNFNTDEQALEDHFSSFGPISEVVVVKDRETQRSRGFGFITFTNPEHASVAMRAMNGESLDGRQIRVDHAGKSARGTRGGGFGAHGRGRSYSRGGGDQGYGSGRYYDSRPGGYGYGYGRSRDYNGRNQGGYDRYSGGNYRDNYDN
# UniProt P58546, whole entry: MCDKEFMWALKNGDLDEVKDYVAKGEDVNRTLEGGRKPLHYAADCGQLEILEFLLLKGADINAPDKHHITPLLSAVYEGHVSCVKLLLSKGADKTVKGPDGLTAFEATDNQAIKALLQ
# UniProt P78356: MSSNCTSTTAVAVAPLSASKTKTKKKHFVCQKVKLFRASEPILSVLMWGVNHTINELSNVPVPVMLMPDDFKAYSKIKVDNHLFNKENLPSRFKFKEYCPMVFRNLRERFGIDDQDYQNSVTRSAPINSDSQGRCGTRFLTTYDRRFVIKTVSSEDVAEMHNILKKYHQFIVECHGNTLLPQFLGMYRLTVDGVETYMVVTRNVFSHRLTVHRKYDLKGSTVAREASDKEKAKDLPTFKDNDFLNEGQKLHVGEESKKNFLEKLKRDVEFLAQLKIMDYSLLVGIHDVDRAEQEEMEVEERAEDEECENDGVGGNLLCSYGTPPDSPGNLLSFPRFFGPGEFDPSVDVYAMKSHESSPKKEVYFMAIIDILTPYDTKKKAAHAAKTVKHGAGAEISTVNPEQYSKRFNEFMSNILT
# UniProt P61970, whole entry: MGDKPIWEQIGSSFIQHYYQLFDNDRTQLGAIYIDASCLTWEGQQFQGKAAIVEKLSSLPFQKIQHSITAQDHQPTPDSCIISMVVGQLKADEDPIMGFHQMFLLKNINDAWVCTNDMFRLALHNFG
# UniProt P60468, whole entry: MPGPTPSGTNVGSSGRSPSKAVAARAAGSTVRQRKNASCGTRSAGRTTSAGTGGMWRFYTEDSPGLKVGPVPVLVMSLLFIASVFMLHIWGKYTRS
# UniProt P78316: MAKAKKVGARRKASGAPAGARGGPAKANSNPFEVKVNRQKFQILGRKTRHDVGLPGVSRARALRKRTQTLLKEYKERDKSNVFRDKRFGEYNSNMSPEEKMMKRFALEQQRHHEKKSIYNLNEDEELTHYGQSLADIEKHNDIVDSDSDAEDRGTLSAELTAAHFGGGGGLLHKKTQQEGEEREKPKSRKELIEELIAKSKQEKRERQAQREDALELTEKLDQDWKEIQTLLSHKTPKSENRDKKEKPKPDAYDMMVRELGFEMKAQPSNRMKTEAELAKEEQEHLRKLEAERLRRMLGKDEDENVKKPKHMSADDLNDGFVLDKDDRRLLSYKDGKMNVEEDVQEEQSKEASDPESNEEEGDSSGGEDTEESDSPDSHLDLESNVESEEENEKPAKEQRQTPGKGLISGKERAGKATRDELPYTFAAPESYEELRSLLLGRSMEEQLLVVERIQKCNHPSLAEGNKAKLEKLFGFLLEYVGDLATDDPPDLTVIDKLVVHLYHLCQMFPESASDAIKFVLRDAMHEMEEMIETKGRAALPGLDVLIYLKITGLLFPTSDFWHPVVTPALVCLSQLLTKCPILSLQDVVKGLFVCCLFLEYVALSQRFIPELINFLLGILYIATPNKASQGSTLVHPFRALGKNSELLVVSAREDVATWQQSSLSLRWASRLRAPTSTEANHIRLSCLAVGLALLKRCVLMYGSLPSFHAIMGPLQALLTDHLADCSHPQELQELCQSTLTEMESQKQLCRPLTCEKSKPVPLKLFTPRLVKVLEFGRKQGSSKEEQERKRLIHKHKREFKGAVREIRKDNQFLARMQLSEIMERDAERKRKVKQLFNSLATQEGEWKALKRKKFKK
# ± gives the standard deviation of the averaged measurements. This is a selection; strong and weak results do not stand in their true shares.
# Compound: Nc1ncnc2c1ncn2[C@@H]1O[C@H](COP(=O)(O)OP(=O)(O)OP(=O)(O)O)[C@@H](O)[C@H]1O [adenosine triphosphate]
# Assay: NP40-soluble protein abundance relative to vehicle (solubility fold change) (ratio); higher = more soluble protein in presence of ATP
# In short: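 Eight concentrations, 0.1 to 10 mM, were tested on Jurkat crude lysate for 10 min at room temperature and then 3 min at 37 °C, in three independent experiments. The lysate was solubilised with 0.8% NP40 and benzonase, ultracentrifuged, and the supernatant TMT-labelled for LC-MS/MS. Each value is the fold change against the detergent-processed vehicle in its own replicate, from vsn-normalised intensities.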
Target,NP40-soluble protein abundance (concentration: 1mM),NP40-soluble protein abundance (concentration: 2mM),NP40-soluble protein abundance (concentration: 4mM),NP40-soluble protein abundance (concentration: 6mM),NP40-soluble protein abundance (concentration: 8mM),NP40-soluble protein abundance (concentration: 10mM)
UniProt P78410 and related entries,0.97 ± 0.018,0.932 ± 0.044,0.921 ± 0.031,0.937 ± 0.075,0.893 ± 0.037,0.889 ± 0.061
UniProt P62879,0.99 ± 0.07,0.999 ± 0.07,0.974 ± 0.022,0.909 ± 0.031,0.962 ± 0.022,0.96 ± 0.033
UniProt P62857,0.829 ± 0.12,0.783 ± 0.14,0.736 ± 0.16,0.793 ± 0.23,0.607 ± 0.15,0.684 ± 0.11
UniProt P62310,0.967 ± 0.046,0.94 ± 0.016,0.908 ± 0.034,1.003 ± 0.0085,0.9089 ± 0.0043,0.889 ± 0.019
UniProt P80217 and related entries,0.974 ± 0.067,0.974 ± 0.048,0.979 ± 0.06,0.981 ± 0.041,0.9413 ± 0.0029,0.962 ± 0.024
UniProt P56159 and related entries,0.929 ± 0.094,0.95 ± 0.1,0.937 ± 0.034,0.95 ± 0.12,0.929 ± 0.076,0.931 ± 0.1
GFER (UniProt P55789),1.02 ± 0.092,0.979 ± 0.047,1.01 ± 0.06,0.992 ± 0.13,1.03 ± 0.076,0.826 ± 0.14
RPS3A (UniProt P61247),0.881 ± 0.068,0.819 ± 0.12,0.787 ± 0.12,0.792 ± 0.15,0.698 ± 0.12,0.81 ± 0.1
UniProt P55899 and related entries,0.958 ± 0.096,0.975 ± 0.032,1.02 ± 0.078,1.03 ± 0.093,0.938 ± 0.037,0.93 ± 0.081
UniProt P55327-2|P55327-4,0.869 ± 0.2,0.848 ± 0.14,0.845 ± 0.13,0.815 ± 0.17,0.794 ± 0.086,0.781 ± 0.18
UniProt P62241,0.866 ± 0.034,0.793 ± 0.099,0.709 ± 0.07,0.693 ± 0.12,0.59 ± 0.073,0.677 ± 0.095
UniProt P61160,1.01 ± 0.022,0.999 ± 0.028,0.956 ± 0.038,0.983 ± 0.047,1 ± 0.044,0.969 ± 0.033
UniProt P60891,1.08 ± 0.13,0.992 ± 0.052,0.954 ± 0.013,0.888 ± 0.029,0.985 ± 0.074,0.97 ± 0.065
NAA20 (UniProt P61599),1.09 ± 0.2,1.08 ± 0.18,1.05 ± 0.24,1.01 ± 0.17,1.11 ± 0.14,1.04 ± 0.12
RRP1 (UniProt P56182),1.07 ± 0.073,1.1 ± 0.028,1.09 ± 0.054,1.11 ± 0.062,1.07 ± 0.0041,1.09 ± 0.066
PTTG1IP (UniProt P53801),0.932 ± 0.066,0.915 ± 0.06,0.925 ± 0.021,1.04 ± 0.09,0.912 ± 0.058,0.888 ± 0.11
UniProt P61129,0.96 ± 0.14,0.911 ± 0.029,0.85 ± 0.097,0.957 ± 0.057,0.924 ± 0.022,0.844 ± 0.043
SLC16A1 (UniProt P53985),0.974 ± 0.07,0.97 ± 0.074,0.932 ± 0.034,1.03 ± 0.089,0.9688 ± 0.0072,0.947 ± 0.018
MARS (UniProt P56192),0.99 ± 0.05,0.963 ± 0.013,0.915 ± 0.0096,0.938 ± 0.11,0.97 ± 0.051,0.953 ± 0.052
CASP9 (UniProt P55211),0.992 ± 0.058,1.01 ± 0.028,1.01 ± 0.011,0.945 ± 0.074,1 ± 0.051,0.972 ± 0.055

Target,NP40-soluble protein abundance (concentration: 1mM),NP40-soluble protein abundance (concentration: 2mM),NP40-soluble protein abundance (concentration: 4mM),NP40-soluble protein abundance (concentration: 6mM),NP40-soluble protein abundance (concentration: 8mM),NP40-soluble protein abundance (concentration: 10mM)
UniProt P98194-5|P98194-6|P98194-7|P98194-8|P98194-9|B4E2Q0 and related entries,1.05 ± 0.1,1.06 ± 0.058,1.05 ± 0.07,0.984 ± 0.13,1.04 ± 0.051,1.02 ± 0.045
UniProt P62072,0.974 ± 0.055,0.971 ± 0.12,1 ± 0.14,1.04 ± 0.052,0.957 ± 0.089,0.918 ± 0.12
UniProt P63244,0.942 ± 0.049,0.861 ± 0.031,0.812 ± 0.023,0.778 ± 0.044,0.75 ± 0.028,0.78 ± 0.047
UniProt P53396 and related entries,1.02 ± 0.091,0.98 ± 0.076,0.964 ± 0.054,0.929 ± 0.073,0.991 ± 0.048,0.969 ± 0.069
UniProt P61962,1.1 ± 0.06,1.08 ± 0.054,1.07 ± 0.025,1.06 ± 0.063,1.15 ± 0.014,1.13 ± 0.068
UniProt P53990 and related entries,1.07 ± 0.062,1.09 ± 0.055,1.06 ± 0.07,1.09 ± 0.063,1.08 ± 0.076,1.06 ± 0.03
UniProt P54136 and related entries,1.05 ± 0.086,0.978 ± 0.038,0.957 ± 0.033,0.94 ± 0.054,1.01 ± 0.037,0.96 ± 0.046
SEC13 (UniProt P55735),1.03 ± 0.11,1 ± 0.081,1.01 ± 0.062,0.992 ± 0.057,1.05 ± 0.04,1.02 ± 0.045
UniProt P63313,0.914 ± 0.12,0.813 ± 0.01,0.916 ± 0.054,0.957 ± 0.071,0.815 ± 0.018,0.851 ± 0.12
UniProt P56270-2,1.03 ± 0.055,0.995 ± 0.037,1 ± 0.029,1.06 ± 0.025,1.02 ± 0.034,1.01 ± 0.035
UniProt P62081,0.974 ± 0.045,0.94 ± 0.082,0.944 ± 0.088,0.911 ± 0.078,0.888 ± 0.067,0.943 ± 0.061
YPEL5 (UniProt P62699),0.955 ± 0.074,0.964 ± 0.046,0.914 ± 0.059,0.832 ± 0.12,0.908 ± 0.12,0.952 ± 0.091
UniProt P62314,1.02 ± 0.14,1.01 ± 0.073,1.07 ± 0.05,1.03 ± 0.25,1.12 ± 0.05,1.23 ± 0.11
UniProt P60842,1.08 ± 0.086,1.06 ± 0.06,1.04 ± 0.045,1.03 ± 0.12,1.1 ± 0.039,1.1 ± 0.048
UniProt P60900 and related entries,0.995 ± 0.035,0.924 ± 0.023,0.898 ± 0.028,0.887 ± 0.038,0.954 ± 0.028,0.903 ± 0.032
UniProt P78332 and related entries,0.997 ± 0.038,1.04 ± 0.013,1.06 ± 0.036,1.17 ± 0.043,1.14 ± 0.022,1.19 ± 0.014
UniProt P62753,0.878 ± 0.07,0.805 ± 0.13,0.746 ± 0.14,0.727 ± 0.18,0.659 ± 0.15,0.745 ± 0.14
UniProt P60953 and related entries,0.93 ± 0.076,0.895 ± 0.064,0.915 ± 0.033,0.911 ± 0.054,0.916 ± 0.052,0.893 ± 0.016
ELL (UniProt P55199),0.972 ± 0.028,0.997 ± 0.043,1.02 ± 0.038,0.983 ± 0.062,0.989 ± 0.055,1.04 ± 0.059
RAB4B (UniProt P61018),0.956 ± 0.053,0.946 ± 0.011,0.965 ± 0.028,0.904 ± 0.046,0.91 ± 0.029,0.968 ± 0.011

Target,NP40-soluble protein abundance (concentration: 1mM),NP40-soluble protein abundance (concentration: 2mM),NP40-soluble protein abundance (concentration: 4mM),NP40-soluble protein abundance (concentration: 6mM),NP40-soluble protein abundance (concentration: 8mM),NP40-soluble protein abundance (concentration: 10mM)
HSPA2 (UniProt P54652),0.978 ± 0.097,0.896 ± 0.064,0.921 ± 0.042,0.958 ± 0.059,0.872 ± 0.066,0.9128 ± 0.0058
RBM3 (UniProt P98179),0.933 ± 0.099,1.02 ± 0.053,1.03 ± 0.064,1.11 ± 0.064,1.08 ± 0.045,1.13 ± 0.077
MTPN (UniProt P58546),0.828 ± 0.16,0.767 ± 0.15,0.705 ± 0.19,0.87 ± 0.14,0.819 ± 0.074,0.708 ± 0.066
UniProt P78356,0.998 ± 0.033,1.01 ± 0.036,1.04 ± 0.034,1.05 ± 0.044,1.06 ± 0.047,1.04 ± 0.026
UniProt P62917,0.969 ± 0.07,0.922 ± 0.12,0.901 ± 0.12,0.852 ± 0.12,0.591 ± 0.071,0.956 ± 0.12
UniProt P61106,0.96 ± 0.041,0.98 ± 0.048,0.941 ± 0.057,0.94 ± 0.11,0.943 ± 0.053,0.956 ± 0.052
UniProt P61221,0.994 ± 0.07,0.971 ± 0.074,0.951 ± 0.053,0.935 ± 0.093,0.999 ± 0.051,0.976 ± 0.064
RPP38 (UniProt P78345),0.96 ± 0.065,0.987 ± 0.037,0.998 ± 0.034,0.97 ± 0.09,0.995 ± 0.061,0.981 ± 0.046
UniProt P68371,1.02 ± 0.024,0.987 ± 0.06,0.908 ± 0.023,1.08 ± 0.069,0.922 ± 0.029,0.951 ± 0.056
UniProt P61970,1.001 ± 0.0067,0.992 ± 0.054,0.937 ± 0.045,0.977 ± 0.048,0.938 ± 0.06,0.917 ± 0.062
UniProt P84095,0.979 ± 0.034,0.96 ± 0.035,0.909 ± 0.03,0.967 ± 0.034,0.92 ± 0.066,0.927 ± 0.037
UniProt Q00013 and related entries,1.01 ± 0.018,1.034 ± 0.0068,1.01 ± 0.024,1.03 ± 0.038,1.1 ± 0.11,1.01 ± 0.033
GTF2B (UniProt Q00403),0.964 ± 0.018,0.98 ± 0.021,0.99 ± 0.035,0.959 ± 0.051,1.006 ± 0.009,1.01 ± 0.029
MRPS9 (UniProt P82933),1.02 ± 0.043,0.953 ± 0.053,0.943 ± 0.071,0.94 ± 0.17,0.941 ± 0.12,0.893 ± 0.094
SEC61B (UniProt P60468),0.855 ± 0.17,0.857 ± 0.15,0.87 ± 0.16,0.837 ± 0.14,0.883 ± 0.089,0.789 ± 0.19
NCS1 (UniProt P62166),1.11 ± 0.047,1.09 ± 0.1,1.17 ± 0.1,1.07 ± 0.062,1.0522 ± 0.00087,1.1 ± 0.035
UniProt P61024 and related entries,0.952 ± 0.087,0.94 ± 0.084,0.931 ± 0.082,0.966 ± 0.097,0.914 ± 0.06,0.946 ± 0.11
NOP14 (UniProt P78316),0.931 ± 0.035,0.912 ± 0.03,0.893 ± 0.015,0.923 ± 0.036,0.871 ± 0.017,0.898 ± 0.037
UniProt P58557 and related entries,0.997 ± 0.028,0.981 ± 0.03,1.04 ± 0.015,1.14 ± 0.047,1.05 ± 0.14,0.986 ± 0.15
EEFSEC (UniProt P57772),1 ± 0.065,1.01 ± 0.053,1.02 ± 0.025,1.01 ± 0.075,1.03 ± 0.016,1.05 ± 0.038

# Only NP40-soluble protein abundance (concentration: 2mM) and NP40-soluble protein abundance (concentration: 4mM) (3 entries from above):
Target,NP40-soluble protein abundance (concentration: 2mM),NP40-soluble protein abundance (concentration: 4mM)
RBM3 (UniProt P98179),1.02 ± 0.053,1.03 ± 0.064
UniProt P62917,0.922 ± 0.12,0.901 ± 0.12
UniProt P61970,0.992 ± 0.054,0.937 ± 0.045
